Assay results taken from the supplement of paper PMC12823440, “Inhibitors supercharge kinase turnover through native proteolytic circuits” (Nature, 2025).
Where a name gives a salt, the structure may show the parent alone. The list shows a part of the results. Hit calls seldom repeat between salt and free forms of one compound.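 In K562 cells expressing nanoluciferase-fused kinases, luminescence was recorded at 4 h intervals between 2 and 18 h, normalized as percent of control with DMSO at 100% and a positive control at 0%. A significant (2 sigma) signal drop marks a time point as decreased. The authors' rule for a hit is not shown and takes in more than the number of time points.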

Chains of the proteins cited; added tags and fusions are not shown. Lines headed by an entry give the natural chain unless they say otherwise; changes in a name come on top.
UniProt P42680: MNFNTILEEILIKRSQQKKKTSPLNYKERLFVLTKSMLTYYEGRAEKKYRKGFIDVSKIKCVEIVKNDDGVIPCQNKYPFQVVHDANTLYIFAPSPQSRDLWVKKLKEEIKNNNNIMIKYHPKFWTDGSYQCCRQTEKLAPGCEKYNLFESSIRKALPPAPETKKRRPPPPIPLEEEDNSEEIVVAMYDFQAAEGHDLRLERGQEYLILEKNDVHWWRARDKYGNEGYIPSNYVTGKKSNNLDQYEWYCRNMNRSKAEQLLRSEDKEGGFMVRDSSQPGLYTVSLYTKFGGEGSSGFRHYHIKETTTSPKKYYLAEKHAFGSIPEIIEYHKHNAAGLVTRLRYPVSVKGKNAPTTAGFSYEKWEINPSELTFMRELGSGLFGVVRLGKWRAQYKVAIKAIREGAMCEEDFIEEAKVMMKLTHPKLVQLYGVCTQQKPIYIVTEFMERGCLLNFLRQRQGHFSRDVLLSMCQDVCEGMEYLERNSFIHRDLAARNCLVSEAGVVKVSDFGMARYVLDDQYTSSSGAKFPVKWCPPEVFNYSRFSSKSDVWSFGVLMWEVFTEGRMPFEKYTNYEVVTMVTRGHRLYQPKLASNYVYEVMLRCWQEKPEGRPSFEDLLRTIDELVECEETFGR
UniProt P29597: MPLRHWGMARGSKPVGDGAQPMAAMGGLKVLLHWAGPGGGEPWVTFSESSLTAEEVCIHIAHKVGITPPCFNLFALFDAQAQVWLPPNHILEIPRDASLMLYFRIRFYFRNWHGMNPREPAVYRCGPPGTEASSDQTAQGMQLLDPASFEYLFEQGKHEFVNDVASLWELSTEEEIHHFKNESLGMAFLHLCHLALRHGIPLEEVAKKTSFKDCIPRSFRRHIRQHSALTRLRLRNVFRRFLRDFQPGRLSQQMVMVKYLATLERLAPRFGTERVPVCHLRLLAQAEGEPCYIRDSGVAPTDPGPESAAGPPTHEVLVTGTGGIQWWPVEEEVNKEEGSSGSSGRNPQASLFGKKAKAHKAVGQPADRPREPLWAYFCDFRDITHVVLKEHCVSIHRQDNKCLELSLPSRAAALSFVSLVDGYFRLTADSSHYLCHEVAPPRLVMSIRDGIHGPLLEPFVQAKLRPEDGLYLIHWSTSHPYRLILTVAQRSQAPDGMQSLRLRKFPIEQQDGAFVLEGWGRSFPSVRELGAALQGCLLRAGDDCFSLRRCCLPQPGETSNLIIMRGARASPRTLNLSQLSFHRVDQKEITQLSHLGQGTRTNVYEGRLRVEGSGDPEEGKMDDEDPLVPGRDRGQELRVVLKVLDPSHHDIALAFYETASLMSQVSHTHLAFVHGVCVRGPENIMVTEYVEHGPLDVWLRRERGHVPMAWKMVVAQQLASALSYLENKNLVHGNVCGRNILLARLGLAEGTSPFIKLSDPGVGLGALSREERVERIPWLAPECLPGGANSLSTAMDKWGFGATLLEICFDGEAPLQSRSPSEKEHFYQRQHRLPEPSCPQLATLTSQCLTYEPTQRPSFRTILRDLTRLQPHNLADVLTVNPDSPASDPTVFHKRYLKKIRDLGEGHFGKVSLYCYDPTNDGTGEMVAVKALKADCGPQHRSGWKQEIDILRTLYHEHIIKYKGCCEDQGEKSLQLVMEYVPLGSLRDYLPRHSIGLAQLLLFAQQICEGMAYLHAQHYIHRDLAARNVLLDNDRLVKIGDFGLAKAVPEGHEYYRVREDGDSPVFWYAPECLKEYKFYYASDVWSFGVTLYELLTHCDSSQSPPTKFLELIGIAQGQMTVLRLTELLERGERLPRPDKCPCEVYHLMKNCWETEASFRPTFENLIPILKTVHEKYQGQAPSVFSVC
UniProt P43403: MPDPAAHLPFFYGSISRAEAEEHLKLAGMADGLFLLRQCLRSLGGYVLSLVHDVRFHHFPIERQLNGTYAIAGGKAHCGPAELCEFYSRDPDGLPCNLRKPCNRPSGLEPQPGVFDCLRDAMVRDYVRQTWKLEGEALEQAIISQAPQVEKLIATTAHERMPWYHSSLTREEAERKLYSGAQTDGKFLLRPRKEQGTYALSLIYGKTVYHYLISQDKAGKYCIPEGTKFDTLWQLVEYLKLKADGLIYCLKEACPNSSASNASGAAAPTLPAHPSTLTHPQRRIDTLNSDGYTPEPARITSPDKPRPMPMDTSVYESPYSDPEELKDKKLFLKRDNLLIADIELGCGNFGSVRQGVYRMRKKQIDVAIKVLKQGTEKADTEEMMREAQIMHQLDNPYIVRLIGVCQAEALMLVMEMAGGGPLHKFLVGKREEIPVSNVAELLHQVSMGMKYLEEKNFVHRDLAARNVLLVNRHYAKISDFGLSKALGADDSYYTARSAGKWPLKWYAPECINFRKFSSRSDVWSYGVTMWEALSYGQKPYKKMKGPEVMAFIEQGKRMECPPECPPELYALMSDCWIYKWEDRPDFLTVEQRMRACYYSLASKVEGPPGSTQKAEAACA
UniProt P00519, whole entry: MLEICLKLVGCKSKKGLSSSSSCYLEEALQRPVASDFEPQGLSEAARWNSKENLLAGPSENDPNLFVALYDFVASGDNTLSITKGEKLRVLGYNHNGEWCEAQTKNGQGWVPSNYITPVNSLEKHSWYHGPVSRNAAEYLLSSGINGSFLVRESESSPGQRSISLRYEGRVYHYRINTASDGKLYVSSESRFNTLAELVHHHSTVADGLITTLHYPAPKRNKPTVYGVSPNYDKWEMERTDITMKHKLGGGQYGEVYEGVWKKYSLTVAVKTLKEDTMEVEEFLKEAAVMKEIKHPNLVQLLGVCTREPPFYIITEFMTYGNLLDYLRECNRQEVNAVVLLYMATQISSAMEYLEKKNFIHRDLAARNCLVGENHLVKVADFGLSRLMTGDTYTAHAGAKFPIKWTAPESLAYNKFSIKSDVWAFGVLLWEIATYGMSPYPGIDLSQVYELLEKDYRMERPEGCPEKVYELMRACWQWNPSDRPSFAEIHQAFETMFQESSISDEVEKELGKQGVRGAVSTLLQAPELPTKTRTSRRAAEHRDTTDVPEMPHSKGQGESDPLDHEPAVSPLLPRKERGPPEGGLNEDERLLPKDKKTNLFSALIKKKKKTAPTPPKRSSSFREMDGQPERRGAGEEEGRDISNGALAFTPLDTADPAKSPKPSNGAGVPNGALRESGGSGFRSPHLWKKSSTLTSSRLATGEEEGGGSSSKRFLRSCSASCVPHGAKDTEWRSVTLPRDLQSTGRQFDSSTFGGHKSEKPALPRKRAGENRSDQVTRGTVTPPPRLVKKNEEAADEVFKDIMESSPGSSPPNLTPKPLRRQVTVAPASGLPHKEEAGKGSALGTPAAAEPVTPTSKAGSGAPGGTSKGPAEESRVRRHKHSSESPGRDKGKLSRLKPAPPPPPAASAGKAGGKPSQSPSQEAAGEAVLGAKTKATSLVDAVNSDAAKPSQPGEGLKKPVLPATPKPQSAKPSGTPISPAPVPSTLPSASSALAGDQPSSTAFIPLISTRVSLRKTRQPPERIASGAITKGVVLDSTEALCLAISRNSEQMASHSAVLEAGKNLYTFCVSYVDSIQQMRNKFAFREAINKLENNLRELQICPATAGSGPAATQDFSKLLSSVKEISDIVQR
UniProt P10398: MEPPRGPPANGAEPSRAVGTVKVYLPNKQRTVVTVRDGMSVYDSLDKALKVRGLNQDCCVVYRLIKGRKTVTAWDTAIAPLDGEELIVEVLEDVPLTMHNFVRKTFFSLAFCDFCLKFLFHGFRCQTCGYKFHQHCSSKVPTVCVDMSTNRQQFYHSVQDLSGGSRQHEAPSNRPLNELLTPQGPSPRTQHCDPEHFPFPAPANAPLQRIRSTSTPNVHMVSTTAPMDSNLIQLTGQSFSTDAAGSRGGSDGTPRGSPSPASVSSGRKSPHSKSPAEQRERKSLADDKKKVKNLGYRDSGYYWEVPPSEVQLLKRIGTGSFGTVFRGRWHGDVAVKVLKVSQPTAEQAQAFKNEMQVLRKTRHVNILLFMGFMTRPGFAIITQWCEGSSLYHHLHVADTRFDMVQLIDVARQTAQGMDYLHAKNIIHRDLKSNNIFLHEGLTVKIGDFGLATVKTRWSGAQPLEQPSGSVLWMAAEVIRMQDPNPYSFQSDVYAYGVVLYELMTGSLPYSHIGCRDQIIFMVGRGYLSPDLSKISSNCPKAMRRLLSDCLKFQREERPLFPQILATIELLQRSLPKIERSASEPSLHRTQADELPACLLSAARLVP
UniProt O14965: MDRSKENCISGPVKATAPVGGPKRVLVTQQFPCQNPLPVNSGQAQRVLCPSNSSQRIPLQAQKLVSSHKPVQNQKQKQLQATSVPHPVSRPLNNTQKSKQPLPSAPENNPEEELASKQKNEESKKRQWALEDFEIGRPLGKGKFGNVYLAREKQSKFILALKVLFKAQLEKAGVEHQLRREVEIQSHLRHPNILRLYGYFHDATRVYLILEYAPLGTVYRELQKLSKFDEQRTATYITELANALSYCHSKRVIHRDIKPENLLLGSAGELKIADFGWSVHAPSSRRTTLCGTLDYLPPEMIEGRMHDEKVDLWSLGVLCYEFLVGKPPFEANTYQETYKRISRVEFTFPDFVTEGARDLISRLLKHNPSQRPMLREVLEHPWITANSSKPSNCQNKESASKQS
UniProt Q96GD4, whole entry: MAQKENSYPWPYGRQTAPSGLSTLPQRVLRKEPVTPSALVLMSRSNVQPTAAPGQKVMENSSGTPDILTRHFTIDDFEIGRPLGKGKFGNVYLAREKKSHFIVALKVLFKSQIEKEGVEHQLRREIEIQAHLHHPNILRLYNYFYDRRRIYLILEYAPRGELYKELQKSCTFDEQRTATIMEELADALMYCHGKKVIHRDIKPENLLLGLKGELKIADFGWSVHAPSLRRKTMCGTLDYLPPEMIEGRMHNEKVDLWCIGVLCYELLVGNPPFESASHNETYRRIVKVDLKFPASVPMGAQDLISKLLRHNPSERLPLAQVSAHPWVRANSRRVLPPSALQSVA
UniProt Q9UQB9: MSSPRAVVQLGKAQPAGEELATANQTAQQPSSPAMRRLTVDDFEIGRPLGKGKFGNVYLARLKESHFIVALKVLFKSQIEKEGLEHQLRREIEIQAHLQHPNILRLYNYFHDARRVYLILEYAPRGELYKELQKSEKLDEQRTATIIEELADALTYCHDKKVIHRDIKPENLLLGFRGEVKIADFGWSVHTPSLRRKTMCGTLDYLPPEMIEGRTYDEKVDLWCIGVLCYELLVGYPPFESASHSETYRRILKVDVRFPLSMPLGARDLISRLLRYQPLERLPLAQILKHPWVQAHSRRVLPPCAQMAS
UniProt P51813: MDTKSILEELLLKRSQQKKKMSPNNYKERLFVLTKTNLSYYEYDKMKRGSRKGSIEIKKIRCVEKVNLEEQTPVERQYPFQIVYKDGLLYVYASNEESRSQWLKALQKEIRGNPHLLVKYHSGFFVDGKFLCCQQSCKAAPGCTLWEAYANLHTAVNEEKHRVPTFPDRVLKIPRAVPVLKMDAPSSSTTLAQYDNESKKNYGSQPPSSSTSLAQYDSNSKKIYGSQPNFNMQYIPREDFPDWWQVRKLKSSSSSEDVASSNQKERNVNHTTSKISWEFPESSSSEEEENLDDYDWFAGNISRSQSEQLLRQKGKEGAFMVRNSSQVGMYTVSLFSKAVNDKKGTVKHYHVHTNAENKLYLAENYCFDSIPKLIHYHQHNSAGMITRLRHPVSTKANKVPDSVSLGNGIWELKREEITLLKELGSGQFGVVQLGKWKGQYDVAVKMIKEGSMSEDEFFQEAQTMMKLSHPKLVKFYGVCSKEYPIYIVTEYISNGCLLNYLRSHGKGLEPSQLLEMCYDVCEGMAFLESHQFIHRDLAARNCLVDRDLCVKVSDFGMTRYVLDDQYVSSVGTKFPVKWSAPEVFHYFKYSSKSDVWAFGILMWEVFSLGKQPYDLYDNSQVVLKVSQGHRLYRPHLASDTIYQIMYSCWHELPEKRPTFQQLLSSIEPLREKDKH
UniProt Q06187: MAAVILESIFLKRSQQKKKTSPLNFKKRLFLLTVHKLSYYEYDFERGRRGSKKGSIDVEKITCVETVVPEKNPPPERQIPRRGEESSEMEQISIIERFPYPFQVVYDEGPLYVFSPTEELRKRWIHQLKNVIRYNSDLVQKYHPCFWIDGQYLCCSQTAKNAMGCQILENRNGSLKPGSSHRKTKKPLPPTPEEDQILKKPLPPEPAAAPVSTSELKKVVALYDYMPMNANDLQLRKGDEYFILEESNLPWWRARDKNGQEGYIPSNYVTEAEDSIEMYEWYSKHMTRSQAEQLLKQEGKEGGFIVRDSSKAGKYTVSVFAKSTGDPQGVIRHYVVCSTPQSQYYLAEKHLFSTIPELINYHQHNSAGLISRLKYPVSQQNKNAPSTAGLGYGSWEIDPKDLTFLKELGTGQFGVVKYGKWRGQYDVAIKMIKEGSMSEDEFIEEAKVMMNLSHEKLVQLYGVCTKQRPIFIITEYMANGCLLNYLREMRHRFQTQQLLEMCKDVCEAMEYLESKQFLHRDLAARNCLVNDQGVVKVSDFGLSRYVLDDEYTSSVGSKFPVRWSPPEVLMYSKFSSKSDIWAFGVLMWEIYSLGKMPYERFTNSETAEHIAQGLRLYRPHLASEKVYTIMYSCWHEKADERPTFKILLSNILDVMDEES

Key:
Settings in all cases: K562; 2-18 h
[1] = target: STK38 (UniProt Q15208); experiment: kinase-Nluc reporter destabilization hit call (1 = scored as downregulated) (binary); higher = compound decreases kinase abundance
[2] = target: SYK (UniProt P43405); experiment: as above
[3] = target: TEC (UniProt P42680); experiment: as above
[4] = target: TYK2 (UniProt P29597); experiment: as above
[5] = target: ULK3 (UniProt Q6PHR2); experiment: as above
[6] = target: YES1 (UniProt P07947); experiment: as above
[7] = target: ZAK (UniProt Q9NYL2); experiment: as above
[8] = target: ZAP70 (UniProt P43403); experiment: as above
[9] = target: ABL1 (UniProt P00519); experiment: number of time points (of 5) at which kinase-Nluc abundance scored as decreased, DMSO-normalised (count); higher = more persistent destabilization
[10] = target: AKT1 (UniProt P31749); experiment: as above
[11] = target: ALK (UniProt Q9UM73); experiment: as above
[12] = target: ARAF (UniProt P10398); experiment: as above
[13] = target: AURKA (UniProt O14965); experiment: as above
[14] = target: AURKB (UniProt Q96GD4); experiment: as above
[15] = target: AURKC (UniProt Q9UQB9); experiment: as above
[16] = target: BLK (UniProt P51451); experiment: as above
[17] = target: BMX (UniProt P51813); experiment: as above
[18] = target: BRAF (UniProt P15056); experiment: as above
[19] = system: BRAF_V600E; experiment: as above
[20] = target: BTK (UniProt Q06187); experiment: as above

SMILES	kinase-Nluc reporter destabilization hit call [1]	kinase-Nluc reporter destabilization hit call [2]	kinase-Nluc reporter destabilization hit call [3]	kinase-Nluc reporter destabilization hit call [4]	kinase-Nluc reporter destabilization hit call [5]	kinase-Nluc reporter destabilization hit call [6]	kinase-Nluc reporter destabilization hit call [7]	kinase-Nluc reporter destabilization hit call [8]	number of time points [9]	number of time points [10]	number of time points [11]	number of time points [12]	number of time points [13]	number of time points [14]	number of time points [15]	number of time points [16]	number of time points [17]	number of time points [18]	number of time points [19]	number of time points [20]
CN1CCC(c2cc(-c3ccncc3)c(-c3ccc(F)cc3)[nH]2)CC1 (10 µM)	inactive: 0	inactive: 0	inactive: 0	inactive: 0	inactive: 0	inactive: 0	inactive: 0	inactive: 0	0	0	0	0	0	0	0	0	0	0	0	0
CC[C@@H](Oc1nc(Oc2cc(C)cc(-c3cccc(CN)c3)c2)c(F)cc1F)C(=O)O (10 µM)	inactive: 0	inactive: 0	inactive: 0	inactive: 0	inactive: 0	inactive: 0	inactive: 0	inactive: 0	0	0	0	0	0	0	0	0	0	0	0	0
Cc1ccc(C(=O)Nc2ccc(Oc3cc4cnn(C)c4cc3-c3cn[nH]c3)c(F)c2)c(=O)n1-c1ccc(F)cc1 [Merestinib] (2.5 µM)	inactive: 0	inactive: 0	inactive: 0	inactive: 0	inactive: 0	inactive: 0	inactive: 0	inactive: 0	0	0	0	0	0	0	0	0	0		0	0
CC#CC(=O)N1CC[C@@H](n2c(=O)n(-c3ccc(Oc4ccccc4)cc3)c3c(N)ncnc32)C1 [Tirabrutinib (hydrochloride)] (10 µM)	inactive: 0	inactive: 0	inactive: 0	inactive: 0	inactive: 0	inactive: 0	inactive: 0	inactive: 0	0	0	0	0	0	0	0	0		0	0	0
Cc1ccc2nc(NCCN)c3ncc(C)n3c2c1 (2.5 µM)	inactive: 0	inactive: 0	inactive: 0	inactive: 0	inactive: 0	inactive: 0	inactive: 0	inactive: 0	0	0		0	0	0	0	0	0	0	0	0
O=C([O-])c1cc2ccccc2c(Cc2c(O)c(C(=O)[O-])cc3ccccc23)c1O.[Na+].[Na+] [Pamoic acid (disodium)] (10 µM)	inactive: 0	inactive: 0	inactive: 0	inactive: 0	inactive: 0	inactive: 0	inactive: 0	inactive: 0	0	0	0	0	0	0	0	0	0	0	0	0
COc1cc2c(N3CCN(C(=O)Nc4ccc(OC(C)C)cc4)CC3)ncnc2cc1OCCCN1CCCCC1 [Tandutinib (hydrochloride)] (10 µM)	inactive: 0	inactive: 0	inactive: 0	inactive: 0	inactive: 0	inactive: 0	inactive: 0	inactive: 0	0	0	0	0	0	0	0	0	0		0	0
C=CC(=O)Nc1cccc(Nc2nc(Nc3ccc(N4CCN(C(C)=O)CC4)cc3OC)ncc2C(F)(F)F)c1 [Rociletinib] (10 µM)	inactive: 0	inactive: 0	inactive: 0	inactive: 0	inactive: 0	inactive: 0	inactive: 0	inactive: 0	0	0		0	0	0	0	0	0		1	0
